Measurements from PMC11719849, “Allosteric modulation of the Lon protease via ssDNA binding and local charge changes” (The Journal of Biological Chemistry, 2024).

By UniProt entry, the sequences of proteins in these tests, tags left out. Where a name states a change or a piece, a line headed by the entry shows the natural chain unless it says otherwise.
UniProt P0CAW0: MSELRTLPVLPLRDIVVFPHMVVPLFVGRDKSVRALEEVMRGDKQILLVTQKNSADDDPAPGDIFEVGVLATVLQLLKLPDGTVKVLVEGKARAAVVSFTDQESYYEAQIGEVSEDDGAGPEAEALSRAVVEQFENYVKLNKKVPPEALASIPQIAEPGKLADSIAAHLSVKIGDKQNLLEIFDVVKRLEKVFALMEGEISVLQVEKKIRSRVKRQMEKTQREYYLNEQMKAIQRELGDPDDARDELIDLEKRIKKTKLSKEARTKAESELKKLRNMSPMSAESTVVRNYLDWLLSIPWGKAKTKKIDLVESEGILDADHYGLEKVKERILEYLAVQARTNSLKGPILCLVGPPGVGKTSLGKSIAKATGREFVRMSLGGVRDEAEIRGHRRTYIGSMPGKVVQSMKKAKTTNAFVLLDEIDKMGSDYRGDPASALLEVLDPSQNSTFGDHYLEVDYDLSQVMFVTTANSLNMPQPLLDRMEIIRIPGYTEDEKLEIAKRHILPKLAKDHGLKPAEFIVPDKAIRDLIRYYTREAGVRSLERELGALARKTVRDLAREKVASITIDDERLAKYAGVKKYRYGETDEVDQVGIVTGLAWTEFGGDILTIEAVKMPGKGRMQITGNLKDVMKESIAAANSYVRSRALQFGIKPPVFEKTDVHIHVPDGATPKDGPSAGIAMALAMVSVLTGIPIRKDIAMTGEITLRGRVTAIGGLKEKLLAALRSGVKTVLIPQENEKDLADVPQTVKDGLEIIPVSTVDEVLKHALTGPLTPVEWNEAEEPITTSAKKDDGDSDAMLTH

Columns and labels:
[1] = molecular target: Lon (wild type) (Caulobacter crescentus) (UniProt P0CAW0); assay: fluorescence polarization; conditions: 0.1 uM Lon6, 25 nM FAM-ssDNA; FP: 25 mM HEPES pH 7.5, 10 mM MgCl2, 100 mM KCl, 0.05% Tween-20, 30 C, 0.1 uM Lon (hexamer), 25 nM DNA; mass photometry in TK buffer, 200 nM Lon monomer; recombinant protein; label: FAM (printed at 5' side); single-stranded DNA
[2] = molecular target: Lon (wild type) (Caulobacter crescentus) (UniProt P0CAW0); assay: competition with a labelled probe; conditions: unlabeled dsDNA competitor vs FAM-ssDNA, weaker than ssDNA; recombinant protein

Sequence | binding result [1] | binding result [2]
AACGGATGATCCACAGGAGAGTCTGGCGCAGGGCGAGAG [FAM-ssDNA (G1Box top strand)] | binds | –
AACGGATGATCCACAGGAGAGTCTGGCGCAGGGCGAGAG (double strand) [G1Box dsDNA] | – | binds more weakly

For at least one entry, the source does not settle the construct or the ends of the probe. For some assays here: A weaker result is weaker than the reference pair of the same experiment. At least one verdict was read from the data and is not stated in words by the source.
